This is an account of results in article PMC10123114.

Sequences of proteins named here, by UniProt entry; tags and fusion partners are left off.
UniProt P52294: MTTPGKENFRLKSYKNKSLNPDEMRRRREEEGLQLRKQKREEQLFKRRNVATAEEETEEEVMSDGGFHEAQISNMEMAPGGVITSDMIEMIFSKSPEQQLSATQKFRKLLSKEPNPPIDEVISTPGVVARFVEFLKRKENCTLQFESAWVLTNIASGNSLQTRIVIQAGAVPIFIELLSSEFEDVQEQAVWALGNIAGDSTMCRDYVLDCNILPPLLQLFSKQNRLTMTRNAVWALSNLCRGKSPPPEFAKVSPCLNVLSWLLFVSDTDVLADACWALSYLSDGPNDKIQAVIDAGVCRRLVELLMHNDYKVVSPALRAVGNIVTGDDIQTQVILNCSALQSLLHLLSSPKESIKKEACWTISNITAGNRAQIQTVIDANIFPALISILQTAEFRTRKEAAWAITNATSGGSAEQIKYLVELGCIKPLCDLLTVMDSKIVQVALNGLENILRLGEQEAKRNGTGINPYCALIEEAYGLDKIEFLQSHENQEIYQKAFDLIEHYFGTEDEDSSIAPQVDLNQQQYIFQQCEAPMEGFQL
UniProt Q9UHV9: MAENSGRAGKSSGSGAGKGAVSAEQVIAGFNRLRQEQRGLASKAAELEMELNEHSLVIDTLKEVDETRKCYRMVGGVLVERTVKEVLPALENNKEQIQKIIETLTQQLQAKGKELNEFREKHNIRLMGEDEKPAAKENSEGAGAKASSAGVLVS
UniProt Q9NUG6: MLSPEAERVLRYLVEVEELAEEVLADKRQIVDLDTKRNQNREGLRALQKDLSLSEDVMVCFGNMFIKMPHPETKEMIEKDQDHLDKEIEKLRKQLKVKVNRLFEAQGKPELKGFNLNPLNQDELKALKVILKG
UniProt O15212: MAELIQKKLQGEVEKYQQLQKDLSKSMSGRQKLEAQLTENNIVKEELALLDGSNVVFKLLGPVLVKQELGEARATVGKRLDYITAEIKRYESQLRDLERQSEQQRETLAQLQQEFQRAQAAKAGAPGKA
UniProt Q9BVM2: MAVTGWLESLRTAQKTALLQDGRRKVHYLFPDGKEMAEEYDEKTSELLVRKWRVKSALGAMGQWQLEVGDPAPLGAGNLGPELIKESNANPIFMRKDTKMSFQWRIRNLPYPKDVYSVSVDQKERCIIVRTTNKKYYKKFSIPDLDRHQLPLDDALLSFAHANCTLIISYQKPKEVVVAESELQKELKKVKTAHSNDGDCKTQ

Results are given in words; binding and its absence hold for the method and conditions named. In cells and extracts the contact can be indirect. These calls come from enrichment with a bait or labelling near it, and not all partners need be listed. Sequences can lack the tags named with a protein.

The chains are these.
T1: GFP-NAF1 (UniProt Q96HR8)
T1 sequence: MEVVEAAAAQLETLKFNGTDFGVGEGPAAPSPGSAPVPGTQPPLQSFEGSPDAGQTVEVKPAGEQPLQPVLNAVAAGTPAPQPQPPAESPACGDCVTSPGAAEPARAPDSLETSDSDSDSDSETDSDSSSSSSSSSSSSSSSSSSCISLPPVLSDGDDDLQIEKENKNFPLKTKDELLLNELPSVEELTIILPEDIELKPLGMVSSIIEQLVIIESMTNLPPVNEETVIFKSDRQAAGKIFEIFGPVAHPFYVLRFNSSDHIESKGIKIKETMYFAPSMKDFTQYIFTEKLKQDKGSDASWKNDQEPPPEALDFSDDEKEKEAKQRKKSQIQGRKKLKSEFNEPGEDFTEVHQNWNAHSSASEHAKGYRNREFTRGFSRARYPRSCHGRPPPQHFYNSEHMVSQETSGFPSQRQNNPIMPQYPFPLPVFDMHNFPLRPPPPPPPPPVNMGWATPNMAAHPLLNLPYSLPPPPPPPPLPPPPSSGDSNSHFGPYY

T2: GFP-NHP2 (UniProt Q9NX24)
T2 sequence: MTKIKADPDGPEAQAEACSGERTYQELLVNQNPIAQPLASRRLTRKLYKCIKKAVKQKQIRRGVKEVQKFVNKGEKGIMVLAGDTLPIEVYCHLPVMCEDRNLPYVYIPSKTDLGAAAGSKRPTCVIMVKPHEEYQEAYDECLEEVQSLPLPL

T3: GFP-SHQ1 (UniProt Q6PI26)
T3 sequence: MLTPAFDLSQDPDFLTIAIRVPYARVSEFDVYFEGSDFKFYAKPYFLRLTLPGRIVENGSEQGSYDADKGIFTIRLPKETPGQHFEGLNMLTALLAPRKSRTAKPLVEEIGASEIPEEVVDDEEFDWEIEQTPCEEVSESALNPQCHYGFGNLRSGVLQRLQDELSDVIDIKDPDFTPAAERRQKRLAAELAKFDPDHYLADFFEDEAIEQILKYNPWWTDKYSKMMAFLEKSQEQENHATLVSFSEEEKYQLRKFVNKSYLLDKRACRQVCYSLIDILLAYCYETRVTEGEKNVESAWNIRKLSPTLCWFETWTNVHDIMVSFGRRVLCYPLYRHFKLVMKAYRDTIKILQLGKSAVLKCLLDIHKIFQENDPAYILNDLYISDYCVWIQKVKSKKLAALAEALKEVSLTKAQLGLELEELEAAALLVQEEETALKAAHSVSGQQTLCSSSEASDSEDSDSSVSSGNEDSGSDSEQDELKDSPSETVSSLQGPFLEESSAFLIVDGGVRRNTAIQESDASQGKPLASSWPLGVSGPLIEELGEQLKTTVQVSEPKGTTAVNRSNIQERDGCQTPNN

B1: dyskerin (protein, UniProt O60832 1-514)
chain: MADAEVIILPKKHKKKKERKSLPEEDVAEIQHAEEFLIKPESKVAKLDTSQWPLLLKNFDKLNVRTTHYTPLACGSNPLKREIGDYIRTGFINLDKPSNPSSHEVVAWIRRILRVEKTGHSGTLDPKVTGCLIVCIERATRLVKSQQSAGKEYVGIVRLHNAIEGGTQLSRALETLTGALFQRPPLIAAVKRQLRVRTIYESKMIEYDPERRLGIFWVSCEAGTYIRTLCVHLGLLLGVGGQMQELRRVRSGVMSEKDHMVTMHDVLDAQWLYDNHKDESYLRRVVYPLEKLLTSHKRLVMKDSAVNAICYGAKIMLPGVLRYEDGIEVNQEIVVITTKGEAICMAIALMTTAVISTCDHGIVAKIKRVIMERDTYPRKWGLGPKASQKKLMIKQGLLDKHGKPTDSTPATWKQEYVDYSESAKKEVVAEVVKAPQVVAEAAKTAKRKRESESESDETPPAAPQLIKKEKKKSKKDKKAKAGLESGAEPGDGDSDTTKKKKKKKKAKEVELVSE
B2: SHQ1 (endogenous) (protein, UniProt Q6PI26 1-577)
chain: T3 sequence
B3: NHP2 (endogenous) (protein, UniProt Q9NX24 1-153)
chain: T2 sequence
B4: NOP10 (protein, UniProt Q9NPE3 1-64)
chain: MFLQYYLNEQGDRVYTLKKFDPMGQQTCSAHPARFSPDDKYSRHRITIKKRFKVLMTQQPRPVL
B5: NAF1 (endogenous) (protein, UniProt Q96HR8 1-494)
chain: T1 sequence

For the first test, the target named is T1, GFP-NAF1. The test is described as follows: affinity purification with mass spectrometry; IP-SILAC: GFP-Trap beads on whole-cell extracts of SILAC-labelled HEK293 Flp-In T-REx cells, GFP-tagged bait induced 3 h with doxycycline; HNT buffer (20 mM HEPES pH 7.4, 150 mM NaCl, 0.5% Triton X-100), 4 °C; control: parental cells without the GFP fusion.
As to B1, the binding entry is listed as “binds”. Same read-out and setting: in the case of B2 it was “binds”; in that of B3, “binds”; in that of B4, “binds”.

Another test has as its target T2, GFP-NHP2. The test is described as above.
Take B1: the binding entry is recorded as “binds”. B2: the binding result was “binds”. On the same count and under the same terms, the same measure for B5: “binds”.

The target in a further test is T3, GFP-SHQ1. The description is as above.
In the case of B1, the binding entry was “binds”. On the same count and under the same terms, the same measure for B5: “binds”; for B3: “binds”. On to B4, for which the binding entry is “binds”.

In another test the target is T2, GFP-NHP2. The description is as above. The source holds these as a separate data set.
Regarding “IMA5 (importin α5) (from UniProt P52294 1-538)”, the binding entry was “binds”.

The target in a further test is T3, GFP-SHQ1. The test is described as above. The source holds these as a separate data set.
On to PFDN2 (from UniProt Q9UHV9 1-154), for which the binding entry is reported as “binds”.

For PDRG1 (from UniProt Q9NUG6 1-133), the binding entry is “binds”.

For PFDN6 (from UniProt O15212 1-129), the binding entry is “binds”. Consider DPCD (from UniProt Q9BVM2 1-203), for which the binding result was “binds”.
